From publication doi:10.1101/2022.01.27.478073 (bioRxiv, 2022)
Read-outs that look alike come from different tables or passages of the source. Results are given in words; binding and its absence hold for the method and conditions named. For part of these data: In cells and extracts the contact can be indirect. Some binding calls cover weakened binding; strength is not graded here. For part of these data: Where a sequence is shown, tags or fusion partners need not be part of it.

T1: AtGPA1 (heterotrimeric G protein α subunit), bait from pDHB1-AtGPA1 (Arabidopsis) (UniProt P18064)
T1 sequence: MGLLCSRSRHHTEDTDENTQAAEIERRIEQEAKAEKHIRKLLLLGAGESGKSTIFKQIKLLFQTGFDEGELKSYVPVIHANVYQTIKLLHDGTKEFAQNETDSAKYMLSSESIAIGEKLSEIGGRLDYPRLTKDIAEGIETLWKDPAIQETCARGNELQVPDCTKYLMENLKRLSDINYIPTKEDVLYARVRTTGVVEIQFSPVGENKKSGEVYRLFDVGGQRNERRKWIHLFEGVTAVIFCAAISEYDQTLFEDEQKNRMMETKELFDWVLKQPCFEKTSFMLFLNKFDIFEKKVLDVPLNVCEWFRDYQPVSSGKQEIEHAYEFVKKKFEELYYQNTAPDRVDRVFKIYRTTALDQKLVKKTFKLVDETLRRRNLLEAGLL

T2: nYFP-AtGPA1 (Arabidopsis) (UniProt P18064)
T2 sequence: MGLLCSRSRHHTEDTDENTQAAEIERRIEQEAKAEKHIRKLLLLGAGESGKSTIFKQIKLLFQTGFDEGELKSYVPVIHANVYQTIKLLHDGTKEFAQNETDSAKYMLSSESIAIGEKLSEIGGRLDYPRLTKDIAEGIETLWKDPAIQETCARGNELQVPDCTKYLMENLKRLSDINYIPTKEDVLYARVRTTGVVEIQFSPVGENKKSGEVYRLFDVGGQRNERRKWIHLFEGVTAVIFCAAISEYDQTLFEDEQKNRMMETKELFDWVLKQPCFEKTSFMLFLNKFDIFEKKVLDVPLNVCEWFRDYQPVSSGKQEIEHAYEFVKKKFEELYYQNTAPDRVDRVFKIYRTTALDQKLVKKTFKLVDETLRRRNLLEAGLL


What was measured:
[1] = target: T1, AtGPA1 (heterotrimeric G protein α subunit), bait from pDHB1-AtGPA1 (Arabidopsis); test: two-hybrid
[2] = target: T1, AtGPA1 (heterotrimeric G protein α subunit), bait from pDHB1-AtGPA1 (Arabidopsis); test: two-hybrid; remark: listed apart in the source
[3] = target: T2, nYFP-AtGPA1 (Arabidopsis); test: split reporter

Row | binding [1] | binding [2] | binding [3] | Binder
1 | binds | binds | – | AtATG8a (autophagy-related protein), prey from pPR3N-AtATG8a (protein, UniProt Q8LEM4 1-117) MAKSSFKISNPLEARMSESSRIREKYPDRIPVIVEKAGQSDVPDIDKKKYLVPADLTVGQFVYVVRKRIKLGAEKAIFVFVKNTLPPTAALMSAIYEEHKDEDGFLYMTYSGENTFG
2 | – | – | binds | cYFP-AtATG8a (protein, UniProt Q8LEM4 1-117) MAKSSFKISNPLEARMSESSRIREKYPDRIPVIVEKAGQSDVPDIDKKKYLVPADLTVGQFVYVVRKRIKLGAEKAIFVFVKNTLPPTAALMSAIYEEHKDEDGFLYMTYSGENTFG

Second part, the binder before the results:

Row | Binder | binding [1] | binding [2] | binding [3]
3 | AtNRT1.4 (nitrate transporter), prey from pPR3N-AtNRT1.4 (protein, UniProt Q9SZY4 1-577) MESKGSWTVADAVDYKGRPADKSKTGGWITAALILGIEVVERLSTMGIAVNLVTYLMETMHLPSSTSANIVTDFMGTSFLLCLLGGFLADSFLGRFKTIGIFSTIQALGTGALAVATKLPELRPPTCHHGEACIPATAFQMTILYVSLYLIALGTGGLKSSISGFGSDQFDDKDPKEKAHMAFFFNRFFFFISMGTLLAVTVLVYMQDEVGRSWAYGICTVSMAIAIVIFLCGTKRYRYKKSQGSPVVQIFQVIAAAFRKRKMELPQSIVYLYEDNPEGIRIEHTDQFHLLDKAAIVAEGDFEQTLDGVAIPNPWKLSSVTKVEEVKMMVRLLPIWATTIIFWTTYAQMITFSVEQASTMRRNIGSFKIPAGSLTVFFVAAILITLAVYDRAIMPFWKKWKGKPGFSSLQRIAIGLVLSTAGMAAAALVEQKRLSVAKSSSQKTLPISVFLLVPQFFLVGAGEAFIYTGQLDFFITQSPKGMKTMSTGLFLTTLSLGFFVSSFLVSIVKRVTSTSTDVGWLADNINHGRLDYFYWLLVILSGINFVVYIICALWFKPTKGKDSVEKENGKGFSVEDC | binds | binds | –
4 | cYFP-AtNRT1.4 (protein, UniProt Q9SZY4 1-577) MESKGSWTVADAVDYKGRPADKSKTGGWITAALILGIEVVERLSTMGIAVNLVTYLMETMHLPSSTSANIVTDFMGTSFLLCLLGGFLADSFLGRFKTIGIFSTIQALGTGALAVATKLPELRPPTCHHGEACIPATAFQMTILYVSLYLIALGTGGLKSSISGFGSDQFDDKDPKEKAHMAFFFNRFFFFISMGTLLAVTVLVYMQDEVGRSWAYGICTVSMAIAIVIFLCGTKRYRYKKSQGSPVVQIFQVIAAAFRKRKMELPQSIVYLYEDNPEGIRIEHTDQFHLLDKAAIVAEGDFEQTLDGVAIPNPWKLSSVTKVEEVKMMVRLLPIWATTIIFWTTYAQMITFSVEQASTMRRNIGSFKIPAGSLTVFFVAAILITLAVYDRAIMPFWKKWKGKPGFSSLQRIAIGLVLSTAGMAAAALVEQKRLSVAKSSSQKTLPISVFLLVPQFFLVGAGEAFIYTGQLDFFITQSPKGMKTMSTGLFLTTLSLGFFVSSFLVSIVKRVTSTSTDVGWLADNINHGRLDYFYWLLVILSGINFVVYIICALWFKPTKGKDSVEKENGKGFSVEDC | – | – | binds
